Experimental data published in US20240101654A1.
Results are given in words; binding and its absence hold for the method and conditions named. Some binding calls cover weakened binding; strength is not graded here. One block for each binder: values may come before it.

By UniProt entry, the sequences of proteins in these tests, tags left out. Where a name states a change or a piece, a line headed by the entry shows the natural chain unless it says otherwise. Chains listed by the source or under a name are the forms on record and can include a tag or linker.
human Tau P301L in tissue of transgenic mice hemizygous for Tau P301L (Q-TauP301L) (P10636, form named): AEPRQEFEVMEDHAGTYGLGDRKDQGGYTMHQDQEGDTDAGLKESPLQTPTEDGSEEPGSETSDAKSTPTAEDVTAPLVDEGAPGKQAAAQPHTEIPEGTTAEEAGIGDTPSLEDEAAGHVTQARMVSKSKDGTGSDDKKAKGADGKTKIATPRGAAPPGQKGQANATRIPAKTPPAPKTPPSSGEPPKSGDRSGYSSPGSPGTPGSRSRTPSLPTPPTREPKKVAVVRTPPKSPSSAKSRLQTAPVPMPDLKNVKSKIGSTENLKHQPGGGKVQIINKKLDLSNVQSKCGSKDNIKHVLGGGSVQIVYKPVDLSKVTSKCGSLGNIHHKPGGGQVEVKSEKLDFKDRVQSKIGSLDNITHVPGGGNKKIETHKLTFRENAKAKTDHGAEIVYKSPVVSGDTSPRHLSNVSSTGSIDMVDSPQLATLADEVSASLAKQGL
endogenous Tau in human non-neurological control brain (P10636, form named): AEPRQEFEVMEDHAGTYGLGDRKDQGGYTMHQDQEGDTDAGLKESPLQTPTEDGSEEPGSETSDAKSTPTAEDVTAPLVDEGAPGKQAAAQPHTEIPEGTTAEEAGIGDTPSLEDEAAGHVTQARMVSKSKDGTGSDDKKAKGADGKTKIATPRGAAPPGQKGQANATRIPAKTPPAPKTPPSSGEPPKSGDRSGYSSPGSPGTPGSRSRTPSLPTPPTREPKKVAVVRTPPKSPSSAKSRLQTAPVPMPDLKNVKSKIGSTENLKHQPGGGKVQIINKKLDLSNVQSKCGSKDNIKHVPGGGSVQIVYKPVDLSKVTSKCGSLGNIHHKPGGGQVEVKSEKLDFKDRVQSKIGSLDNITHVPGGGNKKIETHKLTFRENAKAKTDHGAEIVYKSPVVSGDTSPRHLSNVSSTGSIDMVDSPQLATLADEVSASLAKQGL

How the values were obtained:
[1] = target: human Tau P301L in tissue of transgenic mice hemizygous for Tau P301L (Q-TauP301L) (human) (UniProt P10636); experiment: IHC, tissue of Tau P301L transgenic mice (Table I)
[2] = target: pathological hyperphosphorylated Tau filaments in human AD, PSP and PiD brain tissue (human) (UniProt P10636); experiment: IHC on human AD brain sections, high magnification
[3] = target: pathological hyperphosphorylated Tau filaments in human AD, PSP and PiD brain tissue (human) (UniProt P10636); experiment: IHC on human AD brain sections, antibody at 25 nM
[4] = target: pathological hyperphosphorylated Tau filaments in human AD, PSP and PiD brain tissue (human) (UniProt P10636); experiment: IHC on human AD, PSP and PiD brain sections
[5] = target: AD-associated Tau in brain extracts of patients with AD (human) (UniProt P10636); experiment: immunoprecipitation from AD brain homogenate, immunoblot with Tau 12
[6] = target: endogenous Tau in human non-neurological control brain (human) (UniProt P10636); experiment: immunoprecipitation from control brain extract, antibody at 10 µg/ml
[7] = target: pathological hyperphosphorylated Tau filaments in human AD, PSP and PiD brain tissue (human) (UniProt P10636); experiment: IHC on human AD, PSP and PiD brain sections, antibody at 25 nM
[8] = target: AD-associated Tau in brain extracts of patients with AD (human) (UniProt P10636); experiment: immunoprecipitation from AD brain extract, antibody at 10 µg/ml
[9] = target: pathological hyperphosphorylated Tau filaments in human AD, PSP and PiD brain tissue (human) (UniProt P10636); experiment: IHC on human PSP and PiD brain sections, antibody at 25 nM
[10] = target: pathological hyperphosphorylated Tau filaments in human AD, PSP and PiD brain tissue (human) (UniProt P10636); experiment: IHC, human AD brain tissue (Table I)
[11] = target: AD-associated Tau in brain extracts of patients with AD (human) (UniProt P10636); experiment: immunoprecipitation, human AD brain extracts (Table I)
[12] = target: endogenous Tau in human non-neurological control brain (human) (UniProt P10636); experiment: immunoprecipitation from control brain homogenate, immunoblot with Tau 12

binding [1]: binds
B1: NI-502.8H1 (antibody, V domains shown)
VH: EVQLVESGGGLVQPGGSLRLSCAASGFTFSIYTMSWVRQAPGKGLEWVSAILSDGSTYYADSVEGRFTISRDNSKTTLYLQMNSLTAEDTAVYYCTKRVEGSFRGWGQGTLVTVSS
VL: EIVMTQSPGTLSLSPGESATLSCRASQSVSTTYLAWYQQKPGQAPRLLIYGASSRATGIPDRFSGSGSGTDFTLTISRLEPEDFAVYYCQQYGGSRLITFGQGTRLEIK

binding [2]: binds
binding [3]: binds
binding [4]: binds
binding [5]: binds
binding [6]: binds
binding [7]: binds
binding [8]: binds
binding [9]: binds
binding [10]: binds
binding [11]: binds
binding [1]: binds
binding [12]: binds
B2: NI-502.4P3 (antibody, V domains shown)
VH: EVQLVQSGAEVKKPGESLKISCKVSGYDFSKYWIGWVRQMPGKGLEWMGLIYPGDSDTRYSPSLEGQVSISADKSISAAYLQFSSLKASDSAMYYCVRKGYSAYLGGWFDPWGQGTLVTVSS
VL: DIQLTQSPDSLAASLGERVTINCRSSQNIFYNSNNKNFLAWYQQKAGQSPKLLIYWASTRESGVPDRFSGSGSGTDFTLTISGLQAGDVAVYFCQQYFTDAPTFGGGTKVEIK
